Measurements as given in patent publication US8975248B2, “Combinations of therapeutic agents for treating cancer” (Sigma-Tau Industrie Farmaceutiche Riunite S.p.A., priority 2004, dated 2015).
At least one structure is not confirmed: it was looked up by name or label, or the drawing left a doubt.

System: NCI-H460 non-small cell lung carcinoma
Test: Antitumor activity against NCI-H460 xenograft (docetaxel, carboplatin)
Type: in vivo, human (xenograft in CD1 nu/nu mice)
Settings: docetaxel 20 mg/kg i.p. q4dx2

CC(=O)O[C@@]12CO[C@@H]1C[C@H](O)[C@@]1(C)C(=O)[C@H](O)C3=C(C)[C@@H](OC(=O)[C@H](O)[C@@H](NC(=O)OC(C)(C)C)c4ccccc4)C[C@@](O)([C@@H](OC(=O)c4ccccc4)[C@H]21)C3(C)C [B, docetaxel, reference compound]
CR (complete response): 1 out of 8
